The source of these data is PMC8201613.

Amino acid sequences for entries named in this document (tags omitted). Residues count along the entry.
UniProt P38646, residues 47-679: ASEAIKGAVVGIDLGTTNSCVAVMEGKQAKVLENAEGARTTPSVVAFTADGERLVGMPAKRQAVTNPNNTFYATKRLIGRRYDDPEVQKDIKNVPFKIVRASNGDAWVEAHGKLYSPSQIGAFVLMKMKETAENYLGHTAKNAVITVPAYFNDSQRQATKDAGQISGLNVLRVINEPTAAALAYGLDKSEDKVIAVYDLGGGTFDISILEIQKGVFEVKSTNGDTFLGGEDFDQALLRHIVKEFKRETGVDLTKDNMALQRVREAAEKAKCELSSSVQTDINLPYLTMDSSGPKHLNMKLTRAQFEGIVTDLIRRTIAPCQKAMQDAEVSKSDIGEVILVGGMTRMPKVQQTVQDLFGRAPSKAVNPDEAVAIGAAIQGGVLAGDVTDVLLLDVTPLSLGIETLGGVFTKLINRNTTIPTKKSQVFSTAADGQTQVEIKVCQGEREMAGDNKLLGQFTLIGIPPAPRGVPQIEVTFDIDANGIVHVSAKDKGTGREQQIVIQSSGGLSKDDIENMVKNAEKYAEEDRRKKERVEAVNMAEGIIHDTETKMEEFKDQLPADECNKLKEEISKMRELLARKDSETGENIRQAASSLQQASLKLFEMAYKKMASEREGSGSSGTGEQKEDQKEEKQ
UniProt P21796: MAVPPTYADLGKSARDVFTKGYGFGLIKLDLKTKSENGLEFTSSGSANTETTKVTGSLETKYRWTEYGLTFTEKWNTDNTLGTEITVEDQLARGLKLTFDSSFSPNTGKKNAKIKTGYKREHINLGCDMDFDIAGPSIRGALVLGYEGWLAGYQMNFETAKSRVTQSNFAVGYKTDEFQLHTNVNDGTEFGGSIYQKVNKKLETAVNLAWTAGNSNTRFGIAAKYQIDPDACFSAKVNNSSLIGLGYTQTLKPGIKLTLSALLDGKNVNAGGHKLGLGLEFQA
UniProt Q14571: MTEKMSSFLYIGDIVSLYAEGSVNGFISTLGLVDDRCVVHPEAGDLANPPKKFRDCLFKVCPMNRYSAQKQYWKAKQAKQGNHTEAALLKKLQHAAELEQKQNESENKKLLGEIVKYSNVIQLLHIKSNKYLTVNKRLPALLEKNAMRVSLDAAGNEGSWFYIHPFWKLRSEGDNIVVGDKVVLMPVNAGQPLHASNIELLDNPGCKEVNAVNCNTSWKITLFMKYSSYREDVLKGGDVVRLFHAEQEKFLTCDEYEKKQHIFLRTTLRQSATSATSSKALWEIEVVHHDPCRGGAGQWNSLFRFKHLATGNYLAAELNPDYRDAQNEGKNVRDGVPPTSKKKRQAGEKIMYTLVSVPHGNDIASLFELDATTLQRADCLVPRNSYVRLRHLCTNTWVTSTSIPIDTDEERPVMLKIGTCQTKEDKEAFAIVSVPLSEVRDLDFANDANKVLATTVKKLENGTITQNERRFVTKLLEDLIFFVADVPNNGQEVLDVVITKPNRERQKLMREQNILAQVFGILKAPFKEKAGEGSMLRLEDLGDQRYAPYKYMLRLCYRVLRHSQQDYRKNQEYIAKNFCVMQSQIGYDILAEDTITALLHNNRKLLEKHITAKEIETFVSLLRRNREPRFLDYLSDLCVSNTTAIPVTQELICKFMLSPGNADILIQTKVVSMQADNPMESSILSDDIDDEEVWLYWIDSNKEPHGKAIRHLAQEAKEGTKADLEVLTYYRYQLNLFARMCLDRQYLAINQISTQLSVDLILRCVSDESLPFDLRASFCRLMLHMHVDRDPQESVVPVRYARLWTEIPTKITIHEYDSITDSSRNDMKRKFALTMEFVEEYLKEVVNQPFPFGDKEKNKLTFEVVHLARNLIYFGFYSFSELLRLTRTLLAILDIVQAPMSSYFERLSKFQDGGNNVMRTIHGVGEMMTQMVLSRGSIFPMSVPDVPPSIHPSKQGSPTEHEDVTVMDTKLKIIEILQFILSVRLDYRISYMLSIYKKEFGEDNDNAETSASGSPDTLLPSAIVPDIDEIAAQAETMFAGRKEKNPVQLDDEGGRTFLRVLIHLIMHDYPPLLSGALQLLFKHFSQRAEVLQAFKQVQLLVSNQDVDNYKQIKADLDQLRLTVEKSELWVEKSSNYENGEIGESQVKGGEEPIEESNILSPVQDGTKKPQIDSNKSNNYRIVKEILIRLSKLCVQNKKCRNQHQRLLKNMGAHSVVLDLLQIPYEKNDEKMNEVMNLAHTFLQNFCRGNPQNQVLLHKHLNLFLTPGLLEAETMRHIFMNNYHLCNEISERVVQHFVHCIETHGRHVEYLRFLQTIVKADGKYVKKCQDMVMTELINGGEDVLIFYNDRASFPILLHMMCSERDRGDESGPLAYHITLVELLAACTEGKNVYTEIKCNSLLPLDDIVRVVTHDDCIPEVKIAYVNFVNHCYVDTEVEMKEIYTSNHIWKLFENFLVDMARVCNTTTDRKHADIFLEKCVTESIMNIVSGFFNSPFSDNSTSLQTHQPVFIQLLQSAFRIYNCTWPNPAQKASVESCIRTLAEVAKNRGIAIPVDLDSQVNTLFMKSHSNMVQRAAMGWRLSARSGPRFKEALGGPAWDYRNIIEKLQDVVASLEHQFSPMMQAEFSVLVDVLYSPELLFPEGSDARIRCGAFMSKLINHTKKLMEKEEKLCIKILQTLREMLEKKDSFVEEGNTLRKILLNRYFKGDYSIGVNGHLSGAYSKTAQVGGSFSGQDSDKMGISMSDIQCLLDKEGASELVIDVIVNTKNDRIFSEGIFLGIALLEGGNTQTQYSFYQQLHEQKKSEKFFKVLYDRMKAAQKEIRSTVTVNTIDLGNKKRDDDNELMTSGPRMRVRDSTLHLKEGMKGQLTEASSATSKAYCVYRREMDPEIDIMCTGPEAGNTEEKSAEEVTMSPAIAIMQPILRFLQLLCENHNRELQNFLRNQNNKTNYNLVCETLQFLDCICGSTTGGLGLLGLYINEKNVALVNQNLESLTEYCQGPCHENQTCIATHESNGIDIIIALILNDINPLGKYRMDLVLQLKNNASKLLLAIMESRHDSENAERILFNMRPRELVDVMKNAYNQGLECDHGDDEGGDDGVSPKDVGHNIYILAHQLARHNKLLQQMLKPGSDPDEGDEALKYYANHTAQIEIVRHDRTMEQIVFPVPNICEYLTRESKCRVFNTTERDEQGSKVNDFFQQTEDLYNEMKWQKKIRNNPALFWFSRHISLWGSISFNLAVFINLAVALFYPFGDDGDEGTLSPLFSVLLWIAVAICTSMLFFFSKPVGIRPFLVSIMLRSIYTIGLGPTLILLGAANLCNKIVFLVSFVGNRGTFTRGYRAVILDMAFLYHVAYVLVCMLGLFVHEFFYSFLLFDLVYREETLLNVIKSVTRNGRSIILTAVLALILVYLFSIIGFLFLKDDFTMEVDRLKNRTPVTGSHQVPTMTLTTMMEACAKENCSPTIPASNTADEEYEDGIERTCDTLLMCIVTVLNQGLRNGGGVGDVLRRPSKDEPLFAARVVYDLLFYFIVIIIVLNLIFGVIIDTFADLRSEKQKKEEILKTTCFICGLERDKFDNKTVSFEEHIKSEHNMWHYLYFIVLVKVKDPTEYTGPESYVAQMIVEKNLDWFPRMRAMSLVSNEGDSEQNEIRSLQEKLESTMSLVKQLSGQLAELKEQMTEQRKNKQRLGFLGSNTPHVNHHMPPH
UniProt P11172: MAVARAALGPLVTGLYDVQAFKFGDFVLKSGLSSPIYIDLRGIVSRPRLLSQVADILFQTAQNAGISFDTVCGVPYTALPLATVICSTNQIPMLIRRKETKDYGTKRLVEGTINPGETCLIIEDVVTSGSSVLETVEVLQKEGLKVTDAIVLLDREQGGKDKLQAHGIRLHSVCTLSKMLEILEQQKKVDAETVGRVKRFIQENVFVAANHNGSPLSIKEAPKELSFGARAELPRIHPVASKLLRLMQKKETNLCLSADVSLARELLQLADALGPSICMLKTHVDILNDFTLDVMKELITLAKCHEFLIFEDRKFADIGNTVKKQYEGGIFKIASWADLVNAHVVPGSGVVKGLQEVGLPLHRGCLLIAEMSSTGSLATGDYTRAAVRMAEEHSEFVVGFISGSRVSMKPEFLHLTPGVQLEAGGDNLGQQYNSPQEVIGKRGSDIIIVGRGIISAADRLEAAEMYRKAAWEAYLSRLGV

Substitutions are numbered along the chain they refer to. No constants are given. Whether binding was seen depends on the method and setting. In cells and extracts the contact can be indirect. Here binding means that the protein was enriched with, or labelled near, the bait; the list need not be complete. A no says only that the protein was not detected with the bait. Tags and fused reporters may be left off the sequences shown.

The target of test [1] is T1, V5-TurboID-Bok^WT (mouse) (UniProt O35425).
T1 sequence: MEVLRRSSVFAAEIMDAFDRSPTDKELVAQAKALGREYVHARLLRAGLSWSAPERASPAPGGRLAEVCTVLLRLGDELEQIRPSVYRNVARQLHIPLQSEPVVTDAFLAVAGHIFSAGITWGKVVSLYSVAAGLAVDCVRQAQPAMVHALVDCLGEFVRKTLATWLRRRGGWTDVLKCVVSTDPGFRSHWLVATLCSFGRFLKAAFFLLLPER
Put plainly: proximity labelling; TurboID fusion expressed in Bok KO HeLa cells, 50 uM biotin for 2 h, streptavidin magnetic beads, stringent washes, SDS-PAGE and mass spectrometry; 'strongly labeled' = present in multiple independent experiments and unique or 5x increased over non-transfected control.

The target of test [2] is T2, V5-TurboID-Bok^L34G (mouse) (UniProt O35425).
T2 sequence: T1 sequence with L34G
The test is described as above.

Grp75 (from UniProt P38646 47-679): the binding entry in test [1] is given as “no binding”. For the substance Vdac1 (from UniProt P21796 1-283), the binding result in test [1] was “no binding”. “inositol 1,4,5-trisphosphate receptor type 2 (from UniProt Q14571 1-2701)”: the binding result in test [2] is “no binding”.

“inositol 1,4,5-trisphosphate receptor type 3 (from UniProt Q14573 1-2671)”: the binding entry in test [2] is recorded as “no binding”.

With “uridine monophosphate synthetase (from UniProt P11172 1-480) (enzyme)”, in test [1], the binding result is given as “no binding”.
